Record: PubChem BioAssay AID720505 (Drosophila RNAi Screening Center, 2013)
Assay: 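Genes needed for store-operated calcium entry in fly cells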 (primary screen). Cells: Drosophila S2R+ cells. Reagent: long dsRNA against Drosophila genes. Conditions: thapsigargin (2 µM) in calcium-free buffer to empty internal stores, then 2 mM calcium added back. Measured: 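Stores emptied by 2 µM thapsigargin without calcium, then 2 mM calcium re-added; fluo-4 fluorescence followed by FLIPR in 384-well plates, per-well averaged endpoint, raw; two screen passes, some wells retested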. Scale: calcium signal: higher = more calcium entry after store depletion. Call rule: 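Knock-downs counted as hits when calcium entry dropped relative to STIM1 positive and Rho1 negative controls present on each plate; roughly 1500 genes called, with reductions of differing size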. Meaning of the calls: active = called as lowering calcium entry; inactive = not called.
The deposit covers about 20,000 reagents; below is an unselected part of those that have a named target and a result. Of all reagents, about 2,100 (10%) got an active call. 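Raw plate signals without normalisation; calls rest on control-based scores that were not deposited; replicate 2 separates called from uncalled poorly.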 Entries without a mark were called inactive. Reagents against one gene are numbered here. Not given: the amount of reagent, the time to read-out.

| Target gene | dsRNA no. | calcium signal, replicate 1 | calcium signal, replicate 2 |
| --- | --- | --- | --- |
| gfzf | 1 | 86.9 | 110 |
| gfzf | 2 | 42.4 (active) | 107 |
| CG4744 | 1 | 157 | 129 |
| CG42712 (retired record) | 1 | 191 | 131 |
| Cyp1 | 1 | 125 | 106 |
| nod | 1 | 131 | 102 |
| Tlk | 1 | 153 | 103 |
| Tlk | 2 | 146 | 80.3 |
| Tlk | 3 | 146 | 188 |
| Tlk | 4 | 110 (active) | 110 |
| Tlk | 5 | 93.8 | 167 |
| Tlk | 6 | 65.9 | 79.1 |
| CG2841 | 1 | 9411 | 156 |
| CG2841 | 2 | 67 | 119 |
| CG2841 | 3 | 145 (active) | 79.2 |
| CG7173 | 1 | 93.7 | 136 |
| CG7173 | 2 | 115 | 143 |
| NHP2 | 1 | 105 | 130 |
| TSG101 | 1 | 101 | 158 |

Called active, among the entries above:
| Target gene | dsRNA no. | calcium signal, replicate 1 | calcium signal, replicate 2 |
| --- | --- | --- | --- |
| gfzf | 2 | 42.4 (active) | 107 |
| Tlk | 4 | 110 (active) | 110 |
| CG2841 | 3 | 145 (active) | 79.2 |

More entries:
| Target gene | dsRNA no. | calcium signal, replicate 1 | calcium signal, replicate 2 |
| --- | --- | --- | --- |
| Topors | 1 | 131 | 129 |
| topi | 1 | 117 | 77.5 |
| Nep5 | 1 | 137 | 181 |
| Pka-R2 | 1 | 82.7 | 103 |
| Frq1 | 1 | 91.9 | 137 |
| car | 1 | -15.6 | 101 |
| CG13055 | 1 | 81.5 | 142 |
| CG14627 | 1 | 89.4 | 105 |
| CG32683 | 1 | 65.4 (active) | 75.7 |
| CG32683 | 2 | 67.9 | 85.3 |
| CG32683 | 3 | 64.7 | 96.5 |
| P5cr-2 | 1 | 125 | 152 |
| YME1L | 1 | 202 | 86.2 |
| bur | 1 | 112 | 129 |
| CheA46a | 1 | 127 | 119 |
